Data on 11 molecules can be found in PMC3281992.

Chains of the proteins cited; added tags and fusions are not shown.
UniProt Q8VDS3: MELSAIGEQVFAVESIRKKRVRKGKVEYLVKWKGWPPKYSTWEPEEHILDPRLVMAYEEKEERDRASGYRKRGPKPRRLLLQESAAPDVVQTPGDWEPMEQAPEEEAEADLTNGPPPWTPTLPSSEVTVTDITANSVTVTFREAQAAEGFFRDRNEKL
UniProt Q9CQJ4: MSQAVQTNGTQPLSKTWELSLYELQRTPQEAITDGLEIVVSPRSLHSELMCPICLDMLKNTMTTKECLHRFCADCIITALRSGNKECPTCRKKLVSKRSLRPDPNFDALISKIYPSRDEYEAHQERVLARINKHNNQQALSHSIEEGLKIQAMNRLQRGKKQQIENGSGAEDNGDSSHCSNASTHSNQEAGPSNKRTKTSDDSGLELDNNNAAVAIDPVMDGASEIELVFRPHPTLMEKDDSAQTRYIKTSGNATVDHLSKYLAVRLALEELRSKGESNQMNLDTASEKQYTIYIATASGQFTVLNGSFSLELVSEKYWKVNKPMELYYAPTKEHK

In one assay the target is T1, RYBP-Flag (mouse) (UniProt Q8CCI5).
T1 sequence: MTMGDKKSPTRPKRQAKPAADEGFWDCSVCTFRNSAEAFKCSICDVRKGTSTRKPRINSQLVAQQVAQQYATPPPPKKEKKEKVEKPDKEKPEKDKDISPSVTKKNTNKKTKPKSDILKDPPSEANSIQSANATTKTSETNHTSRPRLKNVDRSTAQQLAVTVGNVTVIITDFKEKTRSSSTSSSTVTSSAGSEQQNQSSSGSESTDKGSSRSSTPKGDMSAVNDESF
The experiment in a line: affinity purification with mass spectrometry; Flag purification of MEL-18-Flag, RYBP-Flag or CBX7-Flag from PGK12.1 mESC nuclear extract; gel bands or lanes analysed by LC-MS/MS.

Assay [1] has as its target T2, MEL-18-Flag (mouse) (UniProt P23798).
T2 sequence: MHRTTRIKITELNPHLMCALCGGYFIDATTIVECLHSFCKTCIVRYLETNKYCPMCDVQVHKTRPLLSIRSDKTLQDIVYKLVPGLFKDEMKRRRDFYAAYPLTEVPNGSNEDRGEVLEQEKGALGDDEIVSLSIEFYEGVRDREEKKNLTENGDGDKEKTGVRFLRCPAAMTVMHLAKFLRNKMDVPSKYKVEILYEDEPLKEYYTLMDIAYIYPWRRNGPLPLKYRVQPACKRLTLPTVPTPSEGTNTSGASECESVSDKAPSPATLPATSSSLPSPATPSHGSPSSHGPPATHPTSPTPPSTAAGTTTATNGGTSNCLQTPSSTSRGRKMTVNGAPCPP
In words: affinity purification with mass spectrometry + co-IP; Flag purification of MEL-18-Flag from NSC nuclear extract, LC-MS/MS and western blot. (In general: A western blot detects proteins with antibodies after separation by electrophoresis.)

The target of assay [2] is T2, MEL-18-Flag (mouse). In words: affinity purification with mass spectrometry; Flag purification of MEL-18-Flag, RYBP-Flag or CBX7-Flag from PGK12.1 mESC nuclear extract; gel bands or lanes analysed by LC-MS/MS.

No constants are given. Whether binding was seen depends on the method and setting. Binding seen in cells or lysates may run through a third protein. A yes stands for co-enrichment or nearness to the bait. Other partners may have been found. For some of these results: A no says only that the protein was not detected with the bait. Sequences can lack the tags named with a protein.

As for CBX7 (from UniProt Q8VDS3 1-158), the binding result with RYBP-Flag (mouse) was “no binding”.

Consider RING1B (from UniProt Q9CQJ4 1-336), for which the binding entry with MEL-18-Flag (mouse) [1], with RYBP-Flag (mouse) and in the assay with MEL-18-Flag (mouse) [2] was “binds” in each case.

B1: MPH1 (protein, UniProt Q64028 1-1010)
chain: METESEQNSSSTNGSSSSGASSRPQIAQMSLYERQAVQALQALQRQPNAAQYFHQFMLQQQLSNAQLHSLAAVQQATIAASRQASSPNSSTAQQQTATTQASMNLATTSAAQLISRSQSVSSPSATTLTQSVLLGNTTSPPLNQSQAQMYLRPQLGNLLQVNRTLGRNVPLASQLILMPNGAVAAVQQEVPPAQSPGVHADADQVQNLAVRNQQASAQGPQMPGSTQKAIPPGASPVSGLSQTSSQALAVAQASSGASGQSLNLSQAGGGSGNSLPGSMGPGGGGQAPGGLGQLPSSGLTGGSCPRKGTGVVQPLPAAQTVTVSQGSQTEAESAAAKKAEADGSGQQSVGMNLTRTATPAPSQTLISSATYTQIQPHSLIQQQQQIHLQQKQVVIQQQIAIHHQQQFQHRQSQLLHTATHLQLAQQQQQQQQQQQQQQQQQQQQQQGTTLTAPQPPQVPPTQQVPPSQSQQQAQTLVVQPMLQSSPLTLPPEPTSKPPIPIQSKPPVAPIKPPQLGAAKMSATQQPPPHIPVQVVGTRQPGSAQAQALGLAQLAAAVPTPRGITGAVQPGQAHLASSPPSSQAAPGALQECPPALAAGMTLAPVQGTAHVVKGGPTASSPVVAQVPAAFYMQSVHLPGKAQTLAVKRKAESEEERDDLSALASVLPTKASPAAESPKVIEEKNSLGEKAEPVASLNANPPNSDLVALAPTPSAPPPTLALVSRQMGDSKPPQAIVKPQILTHIIEGFVIQEGAEPFPVGCSQFLKETKKPLQAGLPTGLNESQPSGPLGGDSPSVELEKKANLLKCEYCGKYAPAEQFRGSKRFCSMTCAKRYNVSCSHQFRLKRKKMKEFQEASYARVRRRGPRRSSSDIARAKIQGKRHRGQEDSSRGSDNSSYDEALSPTSPGPLSVRAGHGERDLGNTITTPSTPELQGINPVFLSSNPSQWSVEEVYEFIASLQGCQEIAEEFRSQEIDGQALLLLKEEHLMSAMNIKLGPALKICAKINVLKET
Turning to B1, the binding entry with MEL-18-Flag (mouse) [1] and with MEL-18-Flag (mouse) [2] was “binds” throughout.

B2: RYBP (protein, UniProt Q8CCI5 1-228)
chain: MTMGDKKSPTRPKRQAKPAADEGFWDCSVCTFRNSAEAFKCSICDVRKGTSTRKPRINSQLVAQQVAQQYATPPPPKKEKKEKVEKPDKEKPEKDKDISPSVTKKNTNKKTKPKSDILKDPPSEANSIQSANATTKTSETNHTSRPRLKNVDRSTAQQLAVTVGNVTVIITDFKEKTRSSSTSSSTVTSSAGSEQQNQSSSGSESTDKGSSRSSTPKGDMSAVNDESF
As to B2, the binding entry in the assay with MEL-18-Flag (mouse) [1] and with MEL-18-Flag (mouse) [2] was “binds” in each case.

B3: MEL-18 (protein, UniProt P23798 1-342)
chain: MHRTTRIKITELNPHLMCALCGGYFIDATTIVECLHSFCKTCIVRYLETNKYCPMCDVQVHKTRPLLSIRSDKTLQDIVYKLVPGLFKDEMKRRRDFYAAYPLTEVPNGSNEDRGEVLEQEKGALGDDEIVSLSIEFYEGVRDREEKKNLTENGDGDKEKTGVRFLRCPAAMTVMHLAKFLRNKMDVPSKYKVEILYEDEPLKEYYTLMDIAYIYPWRRNGPLPLKYRVQPACKRLTLPTVPTPSEGTNTSGASECESVSDKAPSPATLPATSSSLPSPATPSHGSPSSHGPPATHPTSPTPPSTAAGTTTATNGGTSNCLQTPSSTSRGRKMTVNGAPCPP
For B3, the binding result with RYBP-Flag (mouse) is on record as “binds”.

B4: CBX8 (protein, UniProt Q9QXV1 1-362)
chain: MELSAVGERVFAAEALLKRRIRKGRMEYLVKWKGWSQKYSTWEPEENILDARLLAAFEEREREMELYGPKKRGPKPKTFLLKAQAKAKAKTYEFRSDSTRGIRIPYPGRSPQDLASTSRAREGLRNTGLPPPGSSTSTCRADPPRDRDRERDRGTSRVDDKPSSPGDSSKKRGPKPRKEPLDPSQRPLGEPSAGLGEYLKGRKLDETSSGTGKFPAGHSVIQLARRQDSDLVQYGVTSPSSAEASSKLAVDTFPARVIKHRAAFLEAKGQGALDPGGARVRHSSGTPASVGSLYRDMGAQGGRPSLIARIPVARILGDPEEESWSPSLTNLEKVVVTDVTSNFLTVTIKESNTDQGFFKEKR
Consider B4, for which the binding result with MEL-18-Flag (mouse) [1] and in the assay with MEL-18-Flag (mouse) [2] was “binds” throughout.

B5: MBLR (protein, UniProt Q99NA9 1-353)
chain: MDEAETDATENKRASEAKRASAMPPPPPPPPPISPPALIPAPAAGEEGPASLGQAGAAGCSRSRPPALEPERSLGRLRGRFEDYDEELEEEEEMEEEEEEEEEMSHFSLRLESGRADSEDEEERLINLVELTPYILCSICKGYLIDATTITECLHTFCKSCIVRHFYYSNRCPKCNIVVHQTQPLYNIRLDRQLQDIVYKLVINLEEREKKQMHDFYKERGLEVPKPAAPQPVPSSKGKTKKVLESVFRIPPELDMSLLLEFIGANEDTGHFKPLEKKFVRVSGEATIGHVEKFLRRKMGLDPACQVDIICGDHLLERYQTLREIRRAIGDTAMQDGLLVLHYGLVVSPLKIT
Regarding B5, in the assay with RYBP-Flag (mouse), the binding result was “binds”.

B6: MPH3 (protein, UniProt Q8CHP6 1-981)
chain: MDSEPSSGTSVSTTASSTTTTTITTSSSRMQQPQISVYSGSDRHAVQVIQQALHRPPSSAAQYLQQMYAAQQQHLMLHTAALQQQHLSSSQLQSLAAVQASLSSGRPSTSPTGSVTQQSSMSQTSILSASPAPAQLMNRSQTSSSTSGSITQQTMLLGSTSPTLTASQAQMYLRAQMLIFTPATTVAAVQSDIPVVSSSPSPSCQSAAAQVQNLTLRSQKLGVLSSSQNGSPKSAGQTQSLTICHNKTTVTSSKISQRDPSPESKKGGSPGLESRSTAVTRTSSIHQLIAPASYSPIQPHSLIKHQQIPLHSPPPKVSHHQLLLQQQQQQIQPITLQSPSQDPPPSQHCIPLPNHGLSPAPSNAQPQHCSPVQSHPPPLTVSPNQAQSAQQSVVVSPPPPHSPSQSPTIIIHPQALIQPHPLVSSALQTGPNLQQAAADQVQSTAQLNLPSHLPLPASPVVHIGPVQQSALVSPGQQMVSPTSHQQYSALQSSPIPIATPPQMSASPPAQLPPLPLQSMQSLQVQPEILSQGQVLVQNALVSEEELPAAEALVQLPFQTLPPPQTVAVNLQVQPPAPVDPPVVYQVEDVCEEEMPEESDECARMDRTPPPPTLSPAAVTVGRGEDLTSEHPLLEQVELPAVASVSASVIKSPSDPTHASAPAPPLLIPAASTRSSSTSLASSTPSLENKPPQAIVKPQILTHVIEGFVIQEGLEPFPVSRSSLLIEQPVKKRPLLDNQVVNSVCVQPELQNNTKHADNSSDTEIEDMMAEETLEEMDSELLKCEFCGKMGYPNEFLRSKRFCTMSCAKRYNVSCSKKFALSRWNRKPDNQSLGHRGRRPSGPEGAAREHILRQLPITYPSAEEDVASHEDPVPSAMTTRLRRQSERERERELRDVRIRKMPENSDLLPVAQTEPSIWTVDDVWAFIHSLPGCQDVADEFRAQEIDGQALLLLKEDHLMSAMNMKLGPALKICARINSLKDS
For B6, in the assay with MEL-18-Flag (mouse) [2], the binding entry is on record as “binds”.

B7: CBX4 (protein, UniProt O55187 1-551)
chain: MELPAVGEHVFAVESIEKKRIRKGRVEYLVKWRGWSPKYNTWEPEENILDPRLLIAFQNRERQEQLMGYRKRGPKPKPLVVQVPTFARRSNVLTGLQDSSADNRAKLELGTQGKGQGHQYELNSKKHHQYQPHSKERSGKPPPPGKSGKYYYQLNSKKHHPYQPDPKMYDLQYQGGHKEAPSPTCPDLGTKSHPPDKWAHGAAAKGYLGAVKPLGGGAGAPGKGSEKGPPNGMTPAPKEAVTGNGIGGKMKIVKNKNKNGRIVIVMSKYMENGMQAVKIKSGEAAEGEARSPSHKKRAAEERHPQGDRTFKKAAGASEEKKAEVPCKRREEEALVSGDAQPQDLGSRKLSPTKEAFGEQPLQLTTKPDLLAWDPARSSHPPAHHHHHHHHHHHHHTVGLNLSHARKRCLSETHGEREPCKKRLTARSISTPTCLGGSPVSEHPANVSPTAASLPQPEVILLDSDLDEPIDLRCVKMRSDAGEPPSTLQVKPEAPAVAAVVAPAPASEKPPAEAQEEPVEPLSEFKPFFGNIIITDVTANCLTVTFKEYVTV
In the case of B7, the binding entry with MEL-18-Flag (mouse) [1] is “binds”.

B8: NSPC1 (protein, UniProt Q8R023 1-259)
chain: MASPQGGQIAIAMRLRNQLQSVYKMDPLRNEEEVRVKIKDLNEHIVCCLCAGYFVDATTITECLHTFCKSCIVKYLQTSKYCPMCNIKIHETQPLLNLKLDRVMQDIVYKLVPGLQDSEEKRIREFYQSRGLDRVSQPSGEEPALSNLGLPFSSFDHSKAHYYRYDEQLSLCLERLSSGKDKNKNVLQNKYVRCSVRAEVRHLRRVLCHRLMLNPQHVQLLFDNEVLPDHMTMKQLWLSRWFGKPSPLLLQYSVKEKRR
As to B8, the binding result in the assay with RYBP-Flag (mouse) is given as “binds”.

B9: MPH2 (protein, UniProt Q9QWH1 1-850)
chain: MENELPVPHTSNRASVTTNTSGTNSSSGCISSSGGGGGSGGRPTAPQISVYSGIPDRQTVQVIQQALHRQPSTAAQYLQQMYAAQQQHLMLQTAALQQQHLSSAQLQSLAAVQQASLVANRQGSTPGSSVSSQAPAQSSSLNLAASPAAAQLINRAQSVNSAAASGLAQQAVLLGNTSSPALTASQAQMYLRAQMLIFTPTATVATVQPELCTGSPARPPTPAQVQNLTLRTQQTPAAAASGPPPTQPVLPSLALKPTPSSSQPLPAPPQGRTMAQGSPAGAKPSGTDNAPETLKAGDGNCNMEGRPGPGRAVPAVATHPLIAPAYAHLQSHQLLPQPPAKHPQPQFVAQQQPQPPRPAPQVQSQPQLASVSPSLALQSSPEDHALPLGSVTQALPLQCSTTHVHKPGNSQQCHLPTLDTGSQNGHPEGGSHPPQRRFQHTSAVILQVQPASPVTPQQCAPDDWKEVVPAEKSVPVARPGPSPHQQAIIPAIPGGLPGPKSPNIQQCPAHETGQGIVHALTDLSSPGMTSGNGNSASSIAGTAPQNGENKPPQAIVKPQILTHVIEGFVIQEGAEPFPVGRSSLLVGNLKKKYAQGFLPEKPPQQDHTTTTDSEMEEPYLQESKEEGTPLKLKCELCGRVDFAYKFKRSKRFCSMACAKRYNVGCTKRVGLFHSDRSKLQKAGTTTHNRRRASKASLPTLTKDTKKQPSGTVPLSVTAALQLAHSQEDSSRCSDNSSYEEPLSPISASSSTSRRRQGQRDLDLPDMHMRDLVGVGHHFLPSEPTKWNVEDVYEFIRSLPGCQEIAEEFRAQEIDGQALLLLKEDHLMSAMNIKLGPALKIYARISMLKDS
Take B9: the binding entry in the assay with MEL-18-Flag (mouse) [2] was “binds”.
